Record: PubChem BioAssay AID1224828 (NIAID, 2016)

- Assay: 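Find genes required for NF-kappaB p65 moving into the nucleus after LPS in mouse macrophages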 (primary screen)
- Cell system: mouse RAW264.7 G9 macrophage reporter cells (GFP-p65, Tnf promoter-mCherry)
- Knock-down reagent: siRNA pool against mouse genes, 100 nM
- Duration: 2 days siRNA transfection, then 40 min LPS before fixation
- Treatment: LPS (Salmonella minnesota R595) at 10 ng/ml
- Detection: 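Imaged p65 nuclear translocation ratio, normalised to the plate median, converted to robust z-scores and averaged across two replicates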
- Direction: p65 translocation robust z-score: higher = more nuclear NF-kappaB p65 after LPS than the plate median; nuclear/cytoplasmic p65 ratio: higher = more nuclear NF-kappaB p65
- Call rule: 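Active if robust z is above 3.3 (negative regulators) or below -1.56, the Tlr4 control median (positive regulators); activity score 50 or more; control wells not called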
- Calls: active = hit (p65 shift raised or lowered); inactive = no clear change
In all, the deposit lists about 17,000 reagents; this is an unselected part. 762 of all reagents (4.5%) were called active. 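Active calls include both raised and lowered p65 entry, mostly lowered; wells with fewer than 50 cells lack a z-score.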 Raw values vary from plate to plate and are shown uncorrected. A number with no mark means an inactive call. The numbers tell different reagents against one gene apart.

gene | reagent | p65 translocation robust z-score | nuclear/cytoplasmic p65 ratio, rep 1 | nuclear/cytoplasmic p65 ratio, rep 2 | low cell count flag
Slc48a1 | 1 | – | 1.39 | 1.1 | fewer than 50 cells per well; well left out of scoring
Slc36a4 | 1 | – | 1.25 | 0.968 | fewer than 50 cells per well; well left out of scoring
Cttn | 1 | 0.09 | 1.42 | 1.45 | enough cells to score
Stk-ps2 | 1 | -2.25 (active) | 1.09 | 1.04 | enough cells to score
Lratd1 | 1 | -0.89 | 1.27 | 1.59 | enough cells to score
Lcn4 | 1 | 1.69 | 1.82 | 1.64 | enough cells to score
Psg16 | 1 | 0.08 | 1.39 | 1.28 | enough cells to score
Acoxl | 1 | 0.19 | 1.36 | 1.5 | enough cells to score
H4c16 | 1 | -0.1 | 1.71 | 1.46 | enough cells to score
Fhod1 | 1 | 0.47 | 1.52 | 1.66 | enough cells to score
Vwc2l | 1 | 0.03 | 1.42 | 1.49 | enough cells to score
Zdhhc16 | 1 | -1.45 | 1.2 | 1.08 | enough cells to score
Tmem161a | 1 | 1.74 | 1.87 | 2.1 | enough cells to score
Birc2 | 1 | 0.56 | 1.73 | 1.67 | enough cells to score
Cts6 | 1 | -1.44 | 1.34 | 1.57 | enough cells to score
Mospd1 | 1 | -1.83 (active) | 1.55 | 1.27 | enough cells to score
Fbxw11 | 1 | -2.32 (active) | 1.12 | 1.07 | enough cells to score
Miga2 | 1 | -1.44 | 1.22 | 1.22 | enough cells to score
Myg1 | 1 | 0.74 | 1.83 | 1.77 | enough cells to score
Lce1i | 1 | – | 1.47 | 1.39 | fewer than 50 cells per well; well left out of scoring
Tcea3 | 1 | 0.14 | 1.56 | 1.52 | enough cells to score
Dnajc5 | 1 | 2.4 | 1.79 | 1.57 | enough cells to score
Gin1 | 1 | -1.45 | 1.09 | 1.21 | enough cells to score
Klk8 | 1 | – | 1.47 | 1.17 | fewer than 50 cells per well; well left out of scoring
Eya4 | 1 | -0.43 | 1.49 | 1.24 | enough cells to score
Arhgap27 | 1 | -0.51 | 1.26 | 1.43 | enough cells to score
Arhgap27 | 2 | -2.01 (active) | 1.1 | 1.11 | enough cells to score
Cers4 | 1 | -1.66 (active) | 1.24 | 1.28 | enough cells to score
Gnl3l | 1 | -0.78 | 1.44 | 1.74 | enough cells to score
Gm5084 | 1 | -1.06 | 1.3 | 1.31 | enough cells to score
Crocc | 1 | -0.44 | 1.66 | 1.34 | enough cells to score
Pnliprp2 | 1 | -2.14 (active) | 1.04 | 1.03 | enough cells to score
Kcnk10 | 1 | -0.02 | 1.35 | 1.42 | enough cells to score
Lancl3 | 1 | -0.12 | 1.27 | 1.53 | enough cells to score
Or6c217 | 1 | – | 1.43 | 1.39 | fewer than 50 cells per well; well left out of scoring
Or2h2 | 1 | 0.64 | 1.55 | 1.73 | enough cells to score
Spaca7 | 1 | – | 1.53 | 1.88 | fewer than 50 cells per well; well left out of scoring
Mink1 | 1 | -0.36 | 1.65 | 1.32 | enough cells to score
Casq1 | 1 | 0.06 | 1.59 | 1.65 | enough cells to score
Or51e2 | 1 | 2.94 | 1.99 | 1.95 | enough cells to score
Taf7l | 1 | 0.3 | 1.56 | 1.56 | enough cells to score
Eif4ebp2 | 1 | 0.08 | 1.45 | 1.4 | enough cells to score
Cyp2b13 | 1 | -0.29 | 1.5 | 1.77 | enough cells to score
Taf1d | 1 | – | 1.13 | 1.16 | fewer than 50 cells per well; well left out of scoring
Mfsd11 | 1 | – | 1.44 | 1.81 | fewer than 50 cells per well; well left out of scoring
Ppp2r3a | 1 | -0.36 | 1.55 | 1.56 | enough cells to score
Iffo2 | 1 | 0.21 | 1.62 | 1.82 | enough cells to score
Rpp14 | 1 | -1.47 | 1.32 | 1.31 | enough cells to score
D330005C11Rik | 1 | -0.86 | 1.43 | 1.44 | enough cells to score
Zdhhc17 | 1 | – | 1.41 | 1.58 | fewer than 50 cells per well; well left out of scoring
Robo3 | 1 | -1.15 | 1.23 | 1.12 | enough cells to score
Pclaf | 1 | – | 1.77 | 1.17 | fewer than 50 cells per well; well left out of scoring
Chml | 1 | -0.65 | 1.33 | 1.34 | enough cells to score
Cops6 | 1 | 0.17 | 1.57 | 1.84 | enough cells to score
Alg9 | 1 | 0.97 | 1.52 | 1.55 | enough cells to score
Fbxl21 | 1 | 1.14 | 1.73 | 1.71 | enough cells to score
Mettl21a | 1 | – | 1.36 | 1.39 | fewer than 50 cells per well; well left out of scoring
Or1e1 | 1 | -0.12 | 1.51 | 1.54 | enough cells to score
Or5k1 | 1 | -0.21 | 1.5 | 1.46 | enough cells to score
Or2w6 | 1 | 1.03 | 1.53 | 1.56 | enough cells to score
4930550C14Rik | 1 | 0.3 | 1.39 | 1.34 | enough cells to score
P2ry1 | 1 | – | 1.52 | 1.41 | fewer than 50 cells per well; well left out of scoring
Ubtd2 | 1 | -1.3 | 1.44 | 1.4 | enough cells to score
Trim10 | 1 | – | 1.3 | 1.19 | fewer than 50 cells per well; well left out of scoring
2310022A10Rik | 1 | – | 1.43 | 1.36 | fewer than 50 cells per well; well left out of scoring
Ufsp1 | 1 | – | 1.46 | 1.51 | fewer than 50 cells per well; well left out of scoring
Sorbs3 | 1 | 0.95 | 1.73 | 1.65 | enough cells to score
Txndc17 | 1 | – | 1.33 | 1.19 | fewer than 50 cells per well; well left out of scoring
Sdc1 | 1 | 0.5 | 1.5 | 1.26 | enough cells to score
Rax | 1 | 0.39 | 1.58 | 1.56 | enough cells to score
Nagpa | 1 | -1.82 (active) | 1.53 | 1.29 | enough cells to score
Rasgrf2 | 1 | 0.38 | 1.74 | 1.43 | enough cells to score
Amigo3 | 1 | 0.77 | 1.82 | 1.7 | enough cells to score
Pdss1 | 1 | – | 1.44 | 1.3 | fewer than 50 cells per well; well left out of scoring
Slc5a11 | 1 | – | 1.23 | 1.27 | fewer than 50 cells per well; well left out of scoring

Single entries from the entries so far.
Value of Myg1 in “nuclear/cytoplasmic p65 ratio, rep 1”: 1.83
Lratd1, p65 translocation robust z-score → -0.89
Under “nuclear/cytoplasmic p65 ratio, rep 1”, Cts6 is entered as 1.34
Zdhhc17, nuclear/cytoplasmic p65 ratio, rep 1: 1.41
